Assay [1] addresses T1, mouse TOMT with a C-terminal HA tag (TOMT-HA) (mouse) (UniProt A1Y9I9).
T1 sequence: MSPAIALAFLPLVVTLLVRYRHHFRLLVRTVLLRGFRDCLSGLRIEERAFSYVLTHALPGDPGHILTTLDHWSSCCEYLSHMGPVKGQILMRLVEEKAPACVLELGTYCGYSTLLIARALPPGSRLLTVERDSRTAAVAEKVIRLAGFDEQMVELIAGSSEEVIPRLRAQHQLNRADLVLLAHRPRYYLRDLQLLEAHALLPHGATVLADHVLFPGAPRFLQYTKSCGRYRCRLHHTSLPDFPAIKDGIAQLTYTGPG
As to the kind of experiment: co-IP; HEK293 cells co-transfected, lysed after 48 hr in CoIP buffer (50 mM HEPES pH 7.5, 50-300 mM NaCl, 1.5 mM MgCl2, 10% glycerol, 1% Triton X-100, 1 mM EDTA); IP 1 hr at 4°C with HA affinity gel (Figure 8A,B,E) or Flag M2 affinity gel (Figure 8C,D), Western blot. For orientation: In western blotting, separated proteins are transferred to a membrane and probed.

The target in assay [2] is T2, mouse TOMT with a C-terminal FLAG tag (TOMT-FLAG) (mouse) (UniProt A1Y9I9).
T2 sequence: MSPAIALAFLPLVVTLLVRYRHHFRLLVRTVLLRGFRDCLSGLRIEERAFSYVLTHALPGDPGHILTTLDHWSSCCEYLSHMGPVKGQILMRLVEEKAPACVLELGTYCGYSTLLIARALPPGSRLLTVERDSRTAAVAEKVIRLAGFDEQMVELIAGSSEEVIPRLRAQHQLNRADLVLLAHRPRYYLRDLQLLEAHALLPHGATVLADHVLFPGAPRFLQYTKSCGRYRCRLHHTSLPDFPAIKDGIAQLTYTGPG
Described as above.

These are yes or no findings as the source states them, for the method shown. Binding seen in cells or lysates may run through a third protein. Some binding calls cover weakened binding; strength is not graded here. Tags and fused reporters may be left off the sequences shown.

B1: Myc-TMC2 (protein, UniProt Q8R4P4 1-888)
chain: MSPQLKSLDEEGDKSARRPTRKQTSRAACPQDGHRAQSSRKDPAKGSPRPGSSRKKQMEHGSYHKGLQGQKPRKVERSLQGRKKDRRTSLKEQRASPKKEREALRKEAGKQLRKPRSTSLGSSVSTGDSLSEEELAQILEQVEEKKKLITTVRNKPWPMAKKLRELREAQAFVEKYEGALGKGKGKHLYAYRMMMAKKWVKFKRDFDNFKTQCIPWEMKIKDIESHFGSSVASYFIFLRWMYGVNLVLFGLIFGLVIIPEVLMGMPYGSIPRKTVPRAEEERAMDFSVLWDFEGYIKYSALFYGYYNNQRTIGWLRYRLPMAYFMVGVSVFGYSLMIVIRSMASNTQGSTSEGDSDSFTFSFKMFTSWDYLIGNSETADNKYVSITTSFKESIVDEQESNKEGNIHLTRFLRVLANFLILCCLCGSGYLIYFVVKRSQEFSKMQNVSWYERNEVEIVMSLLGMFCPPLFETIAALENYHPRTGLKWQLGRIFALFLGNLYTFLLALMDDVHLKLSNEEKIKNITHWTLFNYYNSSGGNESVPRPPPHPADVPRGSCWETAVGIEFMRLTVSDMLVTYLTILVGDFLRACFVRFMNHCWCWDLEAGFPSYAEFDISGNVLGLIFNQGMIWMGSFYAPGLVGINVLRLLTSMYFQCWAVMSSNVPHERVFKASRSNNFYMGLLLLVLFLSLLPVAYTVMSLPPSFDCGPFSGKNRMYDVLHETIENDFPKFLGKIFAFLANPGLIIPAILLMFLAIYYLNSVSKSLSRANAQLRKKIQALREVEKNHKSIKGKAIVTYSEDTIKNSSKNATQIHLTKEEPTSHSSSQIQTLDKKAQGPHTSSTEGGASPSTSWHHVGSQPPRGRRDSGQPQSQTYTGRSPSGKRTQRPHN
As to B1, the binding entry in assay [1] is reported as “binds”.

B2: Myc-TMC1 (protein, UniProt Q8R4P5 1-757)
chain: MLQIQVEEKEEDTEESSSEEEEDKLPRRESLRPKRKRTRDVINEDDPEPEPEDEETRKAREKERRRRLRRGAEEEEEIDEEELERLKALLDENRQMIATVKCKPWKMEKKIEVLKEAKKFVSENEGALGKGKGKKWFAFKMMMAKKWAKFLRDFENFKAACVPWENKIKAIESQFGSSVASYFLFLRWMYGVNMVLFVLTFSLIMLPEYLWGLPYGSLPRKTVPRAEEASAANFGVLYDFNGLAQYSVLFYGYYDNKRTIGWLNFRLPLSYFLVGIMCIGYSFLVVLKAMTKNIGDDGGGDDNTFNFSWKVFCSWDYLIGNPETADNKFNSITMNFKEAIIEERAAQVEENIHLIRFLRFLANFFVFLTLGASGYLIFWAVKRSQEFAQQDPDTLGWWEKNEMNMVMSLLGMFCPTLFDLFAELEDYHPLIALKWLLGRIFALLLGNLYVFILALMDEINNKIEEEKLVKANITLWEANMIKAYNESLSGLSGNTTGAPFFVHPADVPRGPCWETMVGQEFVRLTVSDVLTTYVTILIGDFLRACFVRFCNYCWCWDLEYGYPSYTEFDISGNVLALIFNQGMIWMGSFFAPSLPGINILRLHTSMYFQCWAVMCCNVPEARVFKASRSNNFYLGMLLLILFLSTMPVLYMIVSLPPSFDCGPFSGKNRMFEVIGETLEHDFPSWMAKILRQLSNPGLVIAVILVMVLTIYYLNATAKGQKAANLDLKKKMKQQALENKMRNKKMAAARAAAAAGGQ
As to B2, in assay [1], the binding entry is “binds”.

B3: TMIE-HA (protein, UniProt Q8K467 29-153)
chain: QLVEPSTAPPKPKPPPLTKETVVFWDMRLWHVVGIFSLFVLSIIITLCCVFNCRVPRTRKEIEARYLQRKAAKMYTDKLETVPPLNELTEIPGEDKKKKKKDSVDTVAIKVEEDEKNEAKKKGEK
B3: in assay [2], the binding entry is recorded as “binds”.

The record behind these values is article PMC5462538.
